Test results: patent publication US20100113339A1
Results are given in words; binding and its absence hold for the method and conditions named. Some binding calls cover weakened binding; strength is not graded here.

Chains of the proteins cited; added tags and fusions are not shown. Residues count along the entry.
UniProt P07724, residues 25-608: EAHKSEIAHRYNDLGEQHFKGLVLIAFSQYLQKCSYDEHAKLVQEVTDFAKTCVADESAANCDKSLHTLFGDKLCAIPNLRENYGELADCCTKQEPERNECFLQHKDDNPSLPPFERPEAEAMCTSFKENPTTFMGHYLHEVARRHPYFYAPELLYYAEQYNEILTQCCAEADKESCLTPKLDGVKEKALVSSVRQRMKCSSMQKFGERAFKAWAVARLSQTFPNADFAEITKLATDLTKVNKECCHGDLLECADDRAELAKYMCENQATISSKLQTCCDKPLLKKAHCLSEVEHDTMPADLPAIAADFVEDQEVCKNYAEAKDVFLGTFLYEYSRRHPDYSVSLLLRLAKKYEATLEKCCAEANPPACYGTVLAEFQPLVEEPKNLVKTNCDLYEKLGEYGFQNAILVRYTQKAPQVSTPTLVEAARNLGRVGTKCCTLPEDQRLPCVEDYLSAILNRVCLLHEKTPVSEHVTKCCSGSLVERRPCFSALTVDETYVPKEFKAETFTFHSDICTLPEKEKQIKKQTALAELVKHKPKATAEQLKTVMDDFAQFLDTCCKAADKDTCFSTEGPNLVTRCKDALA
UniProt P02768, residues 25-609: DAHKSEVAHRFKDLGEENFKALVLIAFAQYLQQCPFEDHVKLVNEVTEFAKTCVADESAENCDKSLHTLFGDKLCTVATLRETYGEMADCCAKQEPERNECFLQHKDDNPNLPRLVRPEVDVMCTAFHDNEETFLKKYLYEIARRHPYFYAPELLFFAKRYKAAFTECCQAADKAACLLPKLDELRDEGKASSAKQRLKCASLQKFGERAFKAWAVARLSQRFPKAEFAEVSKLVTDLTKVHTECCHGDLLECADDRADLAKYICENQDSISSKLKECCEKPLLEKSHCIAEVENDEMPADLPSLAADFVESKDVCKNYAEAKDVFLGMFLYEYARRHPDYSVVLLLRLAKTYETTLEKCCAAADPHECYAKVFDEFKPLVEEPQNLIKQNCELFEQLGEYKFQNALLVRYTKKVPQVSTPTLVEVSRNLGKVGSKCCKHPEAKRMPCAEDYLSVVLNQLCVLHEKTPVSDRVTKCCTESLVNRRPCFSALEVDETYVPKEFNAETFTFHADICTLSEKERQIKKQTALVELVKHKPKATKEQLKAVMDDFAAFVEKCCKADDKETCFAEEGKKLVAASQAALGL
UniProt Q28522, residues 17-600: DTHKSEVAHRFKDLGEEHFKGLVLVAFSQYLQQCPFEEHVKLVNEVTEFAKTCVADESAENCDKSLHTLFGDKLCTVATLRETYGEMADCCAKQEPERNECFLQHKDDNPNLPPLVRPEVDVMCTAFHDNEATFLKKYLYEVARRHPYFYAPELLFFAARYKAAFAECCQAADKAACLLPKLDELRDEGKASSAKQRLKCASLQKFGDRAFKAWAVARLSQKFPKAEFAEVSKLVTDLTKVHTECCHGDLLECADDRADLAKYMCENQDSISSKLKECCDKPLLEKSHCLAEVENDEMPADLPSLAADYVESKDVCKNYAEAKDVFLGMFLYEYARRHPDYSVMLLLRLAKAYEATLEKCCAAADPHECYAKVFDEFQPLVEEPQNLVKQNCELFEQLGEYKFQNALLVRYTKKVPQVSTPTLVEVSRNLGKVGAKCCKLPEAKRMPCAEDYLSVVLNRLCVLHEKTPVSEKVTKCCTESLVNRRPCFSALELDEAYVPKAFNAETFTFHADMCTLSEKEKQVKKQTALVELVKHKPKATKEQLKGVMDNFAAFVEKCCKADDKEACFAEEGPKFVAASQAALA

How the values were obtained:
Test in all cases: SPR Biacore 3000, albumin on CM5 chip, one nanobody concentration; ranked by koff, position 6 of 7, class A
[1] = target: mouse serum albumin (mouse) (UniProt P07724)
[2] = target: human serum albumin (human) (UniProt P02768)
[3] = target: rhesus serum albumin (rhesus) (UniProt Q28522)

binding [1]: binds
binding [2]: binds
binding [3]: binds
B1: PMP6A5 (VHH)
VHH: QVQLAESGGGLVQPGGSLRLTCTASGFTFGSFGMSWVRQAPGEGLEWVSAISADSSDKRYADSVKGRFTISRDNAKKMLYLEMNSLKSEDTAVYYCVIGRGSPASQGTQVTVSS
